One substance from US6989362 can be followed below.

By UniProt entry, the sequences of proteins in these tests, tags left out. Residues count along the entry.
UniProt P61809, residues 2-307: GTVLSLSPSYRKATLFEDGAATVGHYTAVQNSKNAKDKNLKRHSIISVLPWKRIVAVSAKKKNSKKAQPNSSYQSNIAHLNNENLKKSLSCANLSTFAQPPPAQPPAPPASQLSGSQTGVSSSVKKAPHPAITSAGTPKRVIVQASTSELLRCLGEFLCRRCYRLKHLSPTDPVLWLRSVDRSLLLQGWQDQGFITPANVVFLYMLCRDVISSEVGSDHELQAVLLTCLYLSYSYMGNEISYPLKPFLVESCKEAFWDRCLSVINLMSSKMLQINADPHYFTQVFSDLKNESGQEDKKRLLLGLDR

The target of the experiment is Cdk5 immunoprecipitated from mouse striatal homogenate (mouse) (UniProt P49615). As to the kind of experiment: co-immunoprecipitation from mouse striatal homogenate with immunoblotting.

No constants are given. Whether binding was seen depends on the method and setting. Binding seen in cells or lysates may run through a third protein. Some binding calls cover weakened binding; strength is not graded here.

For p35 (from UniProt P61809 2-307), the binding entry is given as “binds”.
